Experimental data as given in the supplement of paper PMC10849652.
The list shows a part of the results.

Sequences of proteins named here, by UniProt entry; tags and fusion partners are left off. A change or cut given only in a name is not applied to a line headed by its entry.
UniProt Q9NVM6: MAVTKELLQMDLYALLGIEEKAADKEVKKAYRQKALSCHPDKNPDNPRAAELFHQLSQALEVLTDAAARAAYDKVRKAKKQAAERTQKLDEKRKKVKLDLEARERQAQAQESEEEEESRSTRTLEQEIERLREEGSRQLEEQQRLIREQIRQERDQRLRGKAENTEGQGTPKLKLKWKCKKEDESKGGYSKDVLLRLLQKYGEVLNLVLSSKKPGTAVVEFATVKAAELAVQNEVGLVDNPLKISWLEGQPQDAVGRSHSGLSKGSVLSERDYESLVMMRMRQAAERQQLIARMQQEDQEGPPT
UniProt Q9BZQ6: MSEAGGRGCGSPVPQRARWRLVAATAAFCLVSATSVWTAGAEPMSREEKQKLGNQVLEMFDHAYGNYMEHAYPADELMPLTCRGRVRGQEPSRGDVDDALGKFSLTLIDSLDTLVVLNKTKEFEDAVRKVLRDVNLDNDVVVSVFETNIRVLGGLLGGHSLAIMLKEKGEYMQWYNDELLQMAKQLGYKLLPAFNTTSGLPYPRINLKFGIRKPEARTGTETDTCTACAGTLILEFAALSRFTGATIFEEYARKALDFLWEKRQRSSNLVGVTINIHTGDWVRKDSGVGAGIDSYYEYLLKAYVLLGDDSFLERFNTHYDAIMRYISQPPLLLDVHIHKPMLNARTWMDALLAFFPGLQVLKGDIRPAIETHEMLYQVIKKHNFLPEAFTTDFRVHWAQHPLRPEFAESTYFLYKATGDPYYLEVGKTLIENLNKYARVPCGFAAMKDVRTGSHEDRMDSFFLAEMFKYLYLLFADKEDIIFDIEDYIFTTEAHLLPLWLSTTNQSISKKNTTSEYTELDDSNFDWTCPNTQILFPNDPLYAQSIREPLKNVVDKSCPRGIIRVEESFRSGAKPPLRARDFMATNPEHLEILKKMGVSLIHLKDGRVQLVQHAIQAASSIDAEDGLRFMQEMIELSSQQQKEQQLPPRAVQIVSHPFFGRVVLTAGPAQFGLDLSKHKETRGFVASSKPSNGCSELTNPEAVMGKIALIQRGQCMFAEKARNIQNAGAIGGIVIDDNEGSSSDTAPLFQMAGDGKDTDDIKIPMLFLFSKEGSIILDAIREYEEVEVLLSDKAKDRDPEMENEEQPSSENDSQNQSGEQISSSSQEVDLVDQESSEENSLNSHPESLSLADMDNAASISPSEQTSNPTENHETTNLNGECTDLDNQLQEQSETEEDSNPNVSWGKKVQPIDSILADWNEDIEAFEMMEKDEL
UniProt P60981: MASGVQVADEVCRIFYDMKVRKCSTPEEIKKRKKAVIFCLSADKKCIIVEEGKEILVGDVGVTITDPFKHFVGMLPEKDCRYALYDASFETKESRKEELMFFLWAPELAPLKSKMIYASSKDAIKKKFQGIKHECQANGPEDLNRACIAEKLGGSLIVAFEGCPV
UniProt Q5JSL3: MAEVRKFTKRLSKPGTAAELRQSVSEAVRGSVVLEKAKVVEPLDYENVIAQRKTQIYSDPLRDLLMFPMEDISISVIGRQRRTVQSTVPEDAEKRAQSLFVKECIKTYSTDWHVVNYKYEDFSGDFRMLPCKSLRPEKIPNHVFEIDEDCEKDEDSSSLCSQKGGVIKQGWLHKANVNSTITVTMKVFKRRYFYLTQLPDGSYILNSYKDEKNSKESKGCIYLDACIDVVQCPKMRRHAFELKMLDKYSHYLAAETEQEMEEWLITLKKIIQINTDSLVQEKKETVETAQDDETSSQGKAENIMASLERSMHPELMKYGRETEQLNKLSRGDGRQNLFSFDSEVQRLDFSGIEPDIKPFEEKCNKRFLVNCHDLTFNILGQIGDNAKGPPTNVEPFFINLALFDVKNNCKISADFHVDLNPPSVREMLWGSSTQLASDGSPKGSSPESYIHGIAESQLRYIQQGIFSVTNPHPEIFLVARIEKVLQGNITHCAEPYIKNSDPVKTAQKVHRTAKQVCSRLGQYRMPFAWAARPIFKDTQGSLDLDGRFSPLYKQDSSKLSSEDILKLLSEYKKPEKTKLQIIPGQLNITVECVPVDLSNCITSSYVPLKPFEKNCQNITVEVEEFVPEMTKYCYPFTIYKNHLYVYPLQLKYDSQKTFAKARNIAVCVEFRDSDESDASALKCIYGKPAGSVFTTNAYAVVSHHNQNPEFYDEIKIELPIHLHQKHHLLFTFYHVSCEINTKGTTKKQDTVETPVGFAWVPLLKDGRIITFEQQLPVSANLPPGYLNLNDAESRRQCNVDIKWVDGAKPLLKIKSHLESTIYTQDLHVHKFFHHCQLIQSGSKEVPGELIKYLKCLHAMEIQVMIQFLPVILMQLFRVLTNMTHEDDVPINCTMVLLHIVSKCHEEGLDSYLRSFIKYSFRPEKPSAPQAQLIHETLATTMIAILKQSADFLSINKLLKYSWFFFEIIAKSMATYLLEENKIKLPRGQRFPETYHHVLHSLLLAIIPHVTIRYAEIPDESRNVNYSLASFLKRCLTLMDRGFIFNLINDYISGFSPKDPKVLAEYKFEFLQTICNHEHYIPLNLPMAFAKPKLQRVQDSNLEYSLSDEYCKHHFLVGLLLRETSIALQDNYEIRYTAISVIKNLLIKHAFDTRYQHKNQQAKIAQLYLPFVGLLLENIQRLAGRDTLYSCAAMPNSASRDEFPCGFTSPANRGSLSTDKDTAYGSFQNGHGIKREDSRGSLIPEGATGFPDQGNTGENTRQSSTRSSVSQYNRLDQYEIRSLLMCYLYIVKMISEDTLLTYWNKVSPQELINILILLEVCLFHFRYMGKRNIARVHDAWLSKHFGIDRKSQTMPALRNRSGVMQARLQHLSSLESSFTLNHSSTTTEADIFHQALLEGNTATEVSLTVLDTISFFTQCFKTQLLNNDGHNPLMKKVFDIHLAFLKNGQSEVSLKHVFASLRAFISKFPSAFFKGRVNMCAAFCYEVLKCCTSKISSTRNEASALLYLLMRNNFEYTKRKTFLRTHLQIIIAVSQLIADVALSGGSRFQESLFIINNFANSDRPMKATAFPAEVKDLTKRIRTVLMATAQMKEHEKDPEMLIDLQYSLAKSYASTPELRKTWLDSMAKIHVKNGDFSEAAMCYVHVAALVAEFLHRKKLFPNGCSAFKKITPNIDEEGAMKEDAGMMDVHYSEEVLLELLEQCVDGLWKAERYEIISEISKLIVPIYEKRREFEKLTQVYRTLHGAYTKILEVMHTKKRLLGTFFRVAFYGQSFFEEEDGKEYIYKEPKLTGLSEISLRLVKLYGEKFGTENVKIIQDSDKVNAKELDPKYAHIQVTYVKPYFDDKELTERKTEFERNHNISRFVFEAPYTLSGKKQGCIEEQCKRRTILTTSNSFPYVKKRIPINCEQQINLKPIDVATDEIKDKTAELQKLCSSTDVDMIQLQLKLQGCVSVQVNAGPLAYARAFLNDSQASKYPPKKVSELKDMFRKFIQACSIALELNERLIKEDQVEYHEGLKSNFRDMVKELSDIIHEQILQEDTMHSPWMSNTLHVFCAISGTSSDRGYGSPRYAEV
UniProt Q96EY1: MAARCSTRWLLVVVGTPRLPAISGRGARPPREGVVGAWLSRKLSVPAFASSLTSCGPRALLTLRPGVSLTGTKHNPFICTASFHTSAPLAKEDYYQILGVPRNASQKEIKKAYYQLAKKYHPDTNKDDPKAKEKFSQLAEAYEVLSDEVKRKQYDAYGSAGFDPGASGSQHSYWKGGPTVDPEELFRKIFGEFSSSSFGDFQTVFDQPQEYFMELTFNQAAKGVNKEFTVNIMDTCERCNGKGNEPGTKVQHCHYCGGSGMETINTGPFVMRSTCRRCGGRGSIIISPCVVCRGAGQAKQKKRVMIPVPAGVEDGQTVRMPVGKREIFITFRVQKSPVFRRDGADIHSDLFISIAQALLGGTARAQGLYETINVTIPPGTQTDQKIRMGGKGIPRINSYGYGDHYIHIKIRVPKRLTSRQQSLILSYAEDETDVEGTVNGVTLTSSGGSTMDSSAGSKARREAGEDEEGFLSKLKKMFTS
UniProt Q9BVJ7: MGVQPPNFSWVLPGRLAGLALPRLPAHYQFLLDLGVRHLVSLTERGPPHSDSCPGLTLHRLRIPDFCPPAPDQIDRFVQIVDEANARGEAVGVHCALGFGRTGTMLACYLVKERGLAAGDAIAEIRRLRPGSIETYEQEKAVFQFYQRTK
UniProt Q01658: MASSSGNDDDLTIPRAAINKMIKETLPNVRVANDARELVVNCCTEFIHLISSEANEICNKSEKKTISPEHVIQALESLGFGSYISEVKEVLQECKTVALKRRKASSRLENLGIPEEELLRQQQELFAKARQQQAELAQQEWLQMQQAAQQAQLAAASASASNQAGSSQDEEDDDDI
UniProt Q9NZJ0: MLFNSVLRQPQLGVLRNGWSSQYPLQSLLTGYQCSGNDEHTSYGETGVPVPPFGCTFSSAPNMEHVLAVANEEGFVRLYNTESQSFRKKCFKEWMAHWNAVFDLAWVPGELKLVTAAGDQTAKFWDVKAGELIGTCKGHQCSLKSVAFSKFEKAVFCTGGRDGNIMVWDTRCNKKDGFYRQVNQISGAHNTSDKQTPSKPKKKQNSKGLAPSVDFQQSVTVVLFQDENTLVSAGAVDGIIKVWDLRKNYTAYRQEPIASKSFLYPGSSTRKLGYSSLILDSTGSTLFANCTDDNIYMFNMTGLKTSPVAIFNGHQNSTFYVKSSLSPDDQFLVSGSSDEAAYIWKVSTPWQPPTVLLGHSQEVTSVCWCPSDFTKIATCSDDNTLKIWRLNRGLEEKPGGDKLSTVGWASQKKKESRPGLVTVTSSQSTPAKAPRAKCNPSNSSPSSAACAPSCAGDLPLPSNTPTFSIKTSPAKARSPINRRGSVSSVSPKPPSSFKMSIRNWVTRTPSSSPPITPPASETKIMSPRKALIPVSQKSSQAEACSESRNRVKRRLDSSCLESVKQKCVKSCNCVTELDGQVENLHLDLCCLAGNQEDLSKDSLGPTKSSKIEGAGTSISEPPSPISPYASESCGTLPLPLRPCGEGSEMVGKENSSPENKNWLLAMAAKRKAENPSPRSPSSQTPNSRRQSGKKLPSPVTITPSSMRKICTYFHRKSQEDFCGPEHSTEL
UniProt Q8IXB1: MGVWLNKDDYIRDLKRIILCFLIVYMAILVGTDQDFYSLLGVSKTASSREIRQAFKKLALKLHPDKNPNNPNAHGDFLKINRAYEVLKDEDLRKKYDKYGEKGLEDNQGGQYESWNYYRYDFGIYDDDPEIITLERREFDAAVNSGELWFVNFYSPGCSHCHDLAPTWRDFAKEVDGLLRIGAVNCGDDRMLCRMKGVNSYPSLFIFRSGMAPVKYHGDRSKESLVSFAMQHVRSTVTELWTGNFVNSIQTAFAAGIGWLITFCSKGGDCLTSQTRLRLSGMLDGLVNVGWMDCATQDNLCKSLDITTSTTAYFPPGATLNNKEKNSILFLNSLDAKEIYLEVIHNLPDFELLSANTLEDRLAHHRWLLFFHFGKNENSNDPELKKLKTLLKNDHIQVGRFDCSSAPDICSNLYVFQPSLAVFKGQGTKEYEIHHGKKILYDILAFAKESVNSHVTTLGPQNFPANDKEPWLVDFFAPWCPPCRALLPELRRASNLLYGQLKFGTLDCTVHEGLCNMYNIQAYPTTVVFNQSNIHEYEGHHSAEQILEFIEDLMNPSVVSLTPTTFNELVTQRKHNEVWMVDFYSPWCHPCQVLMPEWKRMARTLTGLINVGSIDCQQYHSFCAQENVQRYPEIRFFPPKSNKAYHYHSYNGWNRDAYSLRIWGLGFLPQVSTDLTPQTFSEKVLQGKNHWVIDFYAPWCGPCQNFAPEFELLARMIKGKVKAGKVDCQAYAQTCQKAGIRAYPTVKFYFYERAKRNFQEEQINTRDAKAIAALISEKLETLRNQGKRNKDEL
UniProt Q7L8W6: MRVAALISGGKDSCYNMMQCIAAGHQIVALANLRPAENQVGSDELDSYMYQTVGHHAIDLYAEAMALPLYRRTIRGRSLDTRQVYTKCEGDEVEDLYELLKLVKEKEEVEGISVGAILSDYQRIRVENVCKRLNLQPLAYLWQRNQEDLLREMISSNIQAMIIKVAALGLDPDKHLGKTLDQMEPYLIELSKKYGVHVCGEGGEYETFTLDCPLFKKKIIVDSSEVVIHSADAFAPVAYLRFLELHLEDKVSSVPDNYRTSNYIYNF
UniProt Q9BZG8: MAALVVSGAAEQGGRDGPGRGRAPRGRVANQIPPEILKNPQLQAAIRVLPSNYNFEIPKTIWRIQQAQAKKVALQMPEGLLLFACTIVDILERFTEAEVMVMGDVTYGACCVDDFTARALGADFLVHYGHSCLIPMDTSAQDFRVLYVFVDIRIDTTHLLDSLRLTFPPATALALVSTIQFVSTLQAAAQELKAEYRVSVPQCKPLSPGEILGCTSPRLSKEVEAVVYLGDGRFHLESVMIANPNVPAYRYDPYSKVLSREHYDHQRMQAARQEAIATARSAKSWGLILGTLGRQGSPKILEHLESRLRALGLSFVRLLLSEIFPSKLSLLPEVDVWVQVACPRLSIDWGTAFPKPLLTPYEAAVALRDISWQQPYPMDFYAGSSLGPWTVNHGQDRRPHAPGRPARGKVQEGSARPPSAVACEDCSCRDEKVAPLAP

What follows are targets tested with Cn1cncc1[C@@](N)(c1ccc(Cl)cc1)c1ccc2c(c1)c(-c1cccc(Cl)c1)cc(=O)n2C [tipifarnib] (assay: log2 fold change, soluble protein after heating vs DMSO (PISA); higher = thermal stabilisation; K562 cells, 10 uM, 30 min; active = over 0.2 and 3.5 SD of the protein, either way, in both replicates (recomputed)).
In short: (§1)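 Quantification of soluble protein used TMTpro 16plex LC-MS/MS, with channel sums equalised. Samples were the supernatant after 21,000xg for 90 min of pooled aliquots from K562 cells (2×10^6 cells/mL) treated with 10 μM compound for 30 min, heated for 3 min over 48°C-58°C, and extracted in PBS with 0.5% NP-40 at 4°C. Values, from duplicates, describe thermal stability against control samples on a log2 fold-change scale.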

Target	log2 fold change
DNAJC9 (UniProt Q8WXX5)	inactive: 0.001
ECI1 (UniProt P42126)	inactive: -0.007
ECE1 (UniProt P42892)	inactive: -0.023
DNAJB4 (UniProt Q9UDY4)	inactive: -0.098
DNAJC17 (UniProt Q9NVM6)	inactive: 0.019
DPH2 (UniProt Q9BQC3)	inactive: -0.017
EDEM3 (UniProt Q9BZQ6)	inactive: 0.016
DSTN (UniProt P60981)	inactive: -0.038
DNAJC3 (UniProt Q13217)	inactive: 0.092
DOCK11 (UniProt Q5JSL3)	inactive: -0.081
DSG2 (UniProt Q14126)	inactive: 0.044
EDF1 (UniProt O60869)	inactive: -0.002
DNAJC11 (UniProt Q9NVH1)	inactive: 0.013
DPH7 (UniProt Q9BTV6)	inactive: 0.076
DNAJA3 (UniProt Q96EY1)	inactive: -0.031
DUSP23 (UniProt Q9BVJ7)	inactive: -0.172
DST (UniProt Q03001)	inactive: -0.045

Target	log2 fold change
DR1 (UniProt Q01658)	inactive: -0.054
EBAG9 isoform 2 (UniProt O00559)	inactive: 0.005
DNAJC8 (UniProt O75937)	inactive: -0.016
DNAJB11 (UniProt Q9UBS4)	inactive: 0.037
DUT (UniProt P33316)	inactive: -0.018
DTL (UniProt Q9NZJ0)	inactive: -0.022
DRAP1 isoform 2 (UniProt Q14919)	inactive: 0.033
DNAJC12 (UniProt Q9UKB3)	inactive: 0.006
DNAJC10 (UniProt Q8IXB1)	inactive: 0.019
DPH6 (UniProt Q7L8W6)	inactive: -0.057
DPH1 (UniProt Q9BZG8)	inactive: -0.021
DPP7 (UniProt Q9UHL4)	inactive: 0.04
ECHS1 (UniProt P30084)	inactive: -0.033
EDARADD (UniProt Q8WWZ3)	inactive: -0.011
DTD1 (UniProt Q8TEA8)	inactive: -0.023
DSC2 (UniProt Q02487)	inactive: 0.153

What follows are targets tested with FC(F)(F)c1ccc(/C=C/c2nc(COc3ccc(CCCCn4ccnn4)cc3)co2)cc1 [mubritinib] in the same assay as above.
In short: as §1

Target	log2 fold change
DNAJC9 (UniProt Q8WXX5)	inactive: 0.032
ECI1 (UniProt P42126)	inactive: 0.004
ECE1 (UniProt P42892)	inactive: 0.07
DNAJB4 (UniProt Q9UDY4)	inactive: 0.031
DNAJC17 (UniProt Q9NVM6)	inactive: 0.035
DPH2 (UniProt Q9BQC3)	inactive: 0.029
EDEM3 (UniProt Q9BZQ6)	inactive: 0.001
DSTN (UniProt P60981)	inactive: 0.067
DNAJC3 (UniProt Q13217)	inactive: -0.058
DOCK11 (UniProt Q5JSL3)	inactive: 0.119
DSG2 (UniProt Q14126)	inactive: 0.009
EDF1 (UniProt O60869)	inactive: 0.01
DNAJC11 (UniProt Q9NVH1)	inactive: 0.024
DPH7 (UniProt Q9BTV6)	inactive: -0.089
DNAJA3 (UniProt Q96EY1)	inactive: -0.02
DUSP23 (UniProt Q9BVJ7)	inactive: 0.012
DST (UniProt Q03001)	inactive: 0.058

Target	log2 fold change
DR1 (UniProt Q01658)	inactive: -0.021
EBAG9 isoform 2 (UniProt O00559)	inactive: 0.045
DNAJC8 (UniProt O75937)	inactive: 0
DNAJB11 (UniProt Q9UBS4)	inactive: 0.003
DUT (UniProt P33316)	inactive: 0.019
DTL (UniProt Q9NZJ0)	inactive: 0.137
DRAP1 isoform 2 (UniProt Q14919)	inactive: 0.017
DNAJC12 (UniProt Q9UKB3)	inactive: 0.039
DNAJC10 (UniProt Q8IXB1)	inactive: -0.09
DPH6 (UniProt Q7L8W6)	inactive: 0.027
DPH1 (UniProt Q9BZG8)	inactive: 0.008
DPP7 (UniProt Q9UHL4)	inactive: 0.013
ECHS1 (UniProt P30084)	inactive: 0.045
EDARADD (UniProt Q8WWZ3)	inactive: 0.078
DTD1 (UniProt Q8TEA8)	inactive: 0.047
DSC2 (UniProt Q02487)	inactive: 0.071
